Source: publication PMC8384837
Positions count from the first letter of the chain named. The list shows a part of the results. For some assays here: At the low end of the ranking the order means little.

Legend:
Settings in all cases: yeast three-hybrid, YBZ-1, SC-Leu-His + 0.5 mM 3-AT, 4 days
[1] = molecular target: T1, PUM1 PUF domain R5-QLR C1007Q + R1008L + Q1011R (UniProt Q14671)
T1 sequence: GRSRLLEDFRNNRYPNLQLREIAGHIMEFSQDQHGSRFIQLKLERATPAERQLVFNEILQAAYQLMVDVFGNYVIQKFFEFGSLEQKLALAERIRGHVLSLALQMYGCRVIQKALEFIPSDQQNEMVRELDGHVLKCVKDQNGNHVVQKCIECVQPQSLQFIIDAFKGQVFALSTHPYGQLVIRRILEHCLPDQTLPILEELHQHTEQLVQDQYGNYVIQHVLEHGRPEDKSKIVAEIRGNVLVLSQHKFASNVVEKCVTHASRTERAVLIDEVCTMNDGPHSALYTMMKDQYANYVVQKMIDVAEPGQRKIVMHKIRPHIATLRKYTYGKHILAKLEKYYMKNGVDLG

[2] = molecular target: T2, PUM1 PUF domain R5-QLV C1007Q + R1008L + Q1011V (Homo sapiens) (UniProt Q14671)
T2 sequence: T1 sequence with R184V

[3] = molecular target: T3, PUM1 PUF domain R5-QMG C1007Q + R1008M + Q1011G (Homo sapiens) (UniProt Q14671)
T3 sequence: T1 sequence with L181M, R184G

[4] = molecular target: T4, PUM1 PUF domain R5-QQR C1007Q + R1008Q + Q1011R (Homo sapiens) (UniProt Q14671)
T4 sequence: T1 sequence with L181Q

[5] = molecular target: T5, PUM1 PUF domain R5-QRW C1007Q + Q1011W (Homo sapiens) (UniProt Q14671)
T5 sequence: T1 sequence with L181R, R184W

[6] = molecular target: T6, PUM1 PUF domain R5-QSC C1007Q + R1008S + Q1011C (UniProt Q14671)
T6 sequence: T1 sequence with L181S, R184C

[7] = molecular target: T7, PUM1 PUF domain R5-QVI C1007Q + R1008V + Q1011I (UniProt Q14671)
T7 sequence: T1 sequence with L181V, R184I

[8] = molecular target: T8, PUM1 PUF domain R5-QVR C1007Q + R1008V + Q1011R (UniProt Q14671)
T8 sequence: T1 sequence with L181V

[9] = molecular target: T9, PUM1 PUF domain R5-RAA C1007R + R1008A + Q1011A (UniProt Q14671)
T9 sequence: T1 sequence with Q180R, L181A, R184A

[10] = molecular target: T10, PUM1 PUF domain R5-RAD C1007R + R1008A + Q1011D (UniProt Q14671)
T10 sequence: T1 sequence with Q180R, L181A, R184D

[11] = molecular target: T11, PUM1 PUF domain R5-RAI C1007R + R1008A + Q1011I (Homo sapiens) (UniProt Q14671)
T11 sequence: T1 sequence with Q180R, L181A, R184I

[12] = molecular target: T12, PUM1 PUF domain R5-RAK C1007R + R1008A + Q1011K (Homo sapiens) (UniProt Q14671)
T12 sequence: T1 sequence with Q180R, L181A, R184K

[13] = molecular target: T13, PUM1 PUF domain R5-RAM C1007R + R1008A + Q1011M (Homo sapiens) (UniProt Q14671)
T13 sequence: T1 sequence with Q180R, L181A, R184M

[14] = molecular target: T14, PUM1 PUF domain R5-RAP C1007R + R1008A + Q1011P (Homo sapiens) (UniProt Q14671)
T14 sequence: T1 sequence with Q180R, L181A, R184P

[15] = molecular target: T15, PUM1 PUF domain R5-RAS C1007R + R1008A + Q1011S (Homo sapiens) (UniProt Q14671)
T15 sequence: T1 sequence with Q180R, L181A, R184S

[16] = molecular target: T16, PUM1 PUF domain R5-RAT C1007R + R1008A + Q1011T (Homo sapiens) (UniProt Q14671)
T16 sequence: T1 sequence with Q180R, L181A, R184T

[17] = molecular target: T17, PUM1 PUF domain R5-RAV C1007R + R1008A + Q1011V (Homo sapiens) (UniProt Q14671)
T17 sequence: T1 sequence with Q180R, L181A, R184V

[18] = molecular target: T18, PUM1 PUF domain R5-RCC C1007R + R1008C + Q1011C (Homo sapiens) (UniProt Q14671)
T18 sequence: T1 sequence with Q180R, L181C, R184C

[19] = molecular target: T19, PUM1 PUF domain R5-RCD C1007R + R1008C + Q1011D (UniProt Q14671)
T19 sequence: T1 sequence with Q180R, L181C, R184D

[20] = molecular target: T20, PUM1 PUF domain R5-RCG C1007R + R1008C + Q1011G (UniProt Q14671)
T20 sequence: T1 sequence with Q180R, L181C, R184G

Q: Which results are given for “GGCUAGAACUAGUGGAUCCCCCGGCGCCCGGCGGCUCGAGCCCGGGUAAGUGUAAAUAGUCUGCAUGCCGCCGGGCGCCAUGCCUGCAGGUCGACUCUAGAAAACAUG”?
A: binding signal (log2 enrichment (interaction score)) [1]: < -7.78; binding signal (log2 enrichment (interaction score)) [2]: -1.65; binding signal (log2 enrichment (interaction score)) [3]: -0.51; binding signal (log2 enrichment (interaction score)) [4]: -1.11; binding signal (log2 enrichment (interaction score)) [5]: -1.48; binding signal (log2 enrichment (interaction score)) [6]: < -7.14; binding signal (log2 enrichment (interaction score)) [7]: < -7.07; binding signal (log2 enrichment (interaction score)) [8]: < -8.46; binding signal (log2 enrichment (interaction score)) [9]: -3.55; binding signal (log2 enrichment (interaction score)) [10]: -3.62; binding signal (log2 enrichment (interaction score)) [11]: -1.52; binding signal (log2 enrichment (interaction score)) [12]: -0.95; binding signal (log2 enrichment (interaction score)) [13]: -1.38; binding signal (log2 enrichment (interaction score)) [14]: -1.4; binding signal (log2 enrichment (interaction score)) [15]: -1.11; binding signal (log2 enrichment (interaction score)) [16]: -1.03; binding signal (log2 enrichment (interaction score)) [17]: -3.31; binding signal (log2 enrichment (interaction score)) [18]: 0.67; binding signal (log2 enrichment (interaction score)) [19]: < -5.79; binding signal (log2 enrichment (interaction score)) [20]: -2.56
